From PMC13575168
Results are given in words; binding and its absence hold for the method and conditions named. In cells and extracts the contact can be indirect. A yes stands for co-enrichment or nearness to the bait. Other partners may have been found. Where a sequence is shown, tags or fusion partners need not be part of it.

Chains of the proteins cited; added tags and fusions are not shown.
UniProt P0DTC3: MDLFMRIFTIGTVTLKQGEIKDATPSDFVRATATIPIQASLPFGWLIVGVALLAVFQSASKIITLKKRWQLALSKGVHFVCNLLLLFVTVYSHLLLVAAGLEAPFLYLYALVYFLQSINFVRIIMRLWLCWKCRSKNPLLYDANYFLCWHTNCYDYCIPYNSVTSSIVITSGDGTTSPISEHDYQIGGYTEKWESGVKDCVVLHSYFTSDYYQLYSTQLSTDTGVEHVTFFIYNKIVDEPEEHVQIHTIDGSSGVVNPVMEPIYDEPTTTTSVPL

Biological target: T1, CLCC1-TurboID fusion protein (human) (UniProt Q96S66)
T1 sequence: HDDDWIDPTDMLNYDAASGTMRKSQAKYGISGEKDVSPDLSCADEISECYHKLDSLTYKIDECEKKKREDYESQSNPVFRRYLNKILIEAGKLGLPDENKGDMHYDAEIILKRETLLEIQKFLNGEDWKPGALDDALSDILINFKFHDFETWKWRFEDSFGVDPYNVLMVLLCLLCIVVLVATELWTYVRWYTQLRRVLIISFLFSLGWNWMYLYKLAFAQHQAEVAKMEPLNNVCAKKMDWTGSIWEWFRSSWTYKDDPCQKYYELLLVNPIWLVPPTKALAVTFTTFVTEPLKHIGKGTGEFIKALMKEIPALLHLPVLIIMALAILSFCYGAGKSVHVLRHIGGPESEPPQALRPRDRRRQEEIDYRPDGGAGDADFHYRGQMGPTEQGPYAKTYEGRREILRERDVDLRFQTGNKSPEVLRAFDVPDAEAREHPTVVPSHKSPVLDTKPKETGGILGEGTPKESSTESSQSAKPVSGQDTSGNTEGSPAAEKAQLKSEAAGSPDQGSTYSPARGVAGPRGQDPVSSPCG
Assay: proximity labelling

“FLAG-tagged SARS-CoV-2 ORF3a (from UniProt P0DTC3 1-275)” was tested, and the binding was “binds”.
